Data taken from the supplement of paper PMC10849652.
Some of the results follow.

Protein sequences, listed by entry. Tags and fused reporters are not part of them. Lines headed by an entry give the natural chain unless they say otherwise; changes in a name come on top.
UniProt P0CG38, whole entry, looked up: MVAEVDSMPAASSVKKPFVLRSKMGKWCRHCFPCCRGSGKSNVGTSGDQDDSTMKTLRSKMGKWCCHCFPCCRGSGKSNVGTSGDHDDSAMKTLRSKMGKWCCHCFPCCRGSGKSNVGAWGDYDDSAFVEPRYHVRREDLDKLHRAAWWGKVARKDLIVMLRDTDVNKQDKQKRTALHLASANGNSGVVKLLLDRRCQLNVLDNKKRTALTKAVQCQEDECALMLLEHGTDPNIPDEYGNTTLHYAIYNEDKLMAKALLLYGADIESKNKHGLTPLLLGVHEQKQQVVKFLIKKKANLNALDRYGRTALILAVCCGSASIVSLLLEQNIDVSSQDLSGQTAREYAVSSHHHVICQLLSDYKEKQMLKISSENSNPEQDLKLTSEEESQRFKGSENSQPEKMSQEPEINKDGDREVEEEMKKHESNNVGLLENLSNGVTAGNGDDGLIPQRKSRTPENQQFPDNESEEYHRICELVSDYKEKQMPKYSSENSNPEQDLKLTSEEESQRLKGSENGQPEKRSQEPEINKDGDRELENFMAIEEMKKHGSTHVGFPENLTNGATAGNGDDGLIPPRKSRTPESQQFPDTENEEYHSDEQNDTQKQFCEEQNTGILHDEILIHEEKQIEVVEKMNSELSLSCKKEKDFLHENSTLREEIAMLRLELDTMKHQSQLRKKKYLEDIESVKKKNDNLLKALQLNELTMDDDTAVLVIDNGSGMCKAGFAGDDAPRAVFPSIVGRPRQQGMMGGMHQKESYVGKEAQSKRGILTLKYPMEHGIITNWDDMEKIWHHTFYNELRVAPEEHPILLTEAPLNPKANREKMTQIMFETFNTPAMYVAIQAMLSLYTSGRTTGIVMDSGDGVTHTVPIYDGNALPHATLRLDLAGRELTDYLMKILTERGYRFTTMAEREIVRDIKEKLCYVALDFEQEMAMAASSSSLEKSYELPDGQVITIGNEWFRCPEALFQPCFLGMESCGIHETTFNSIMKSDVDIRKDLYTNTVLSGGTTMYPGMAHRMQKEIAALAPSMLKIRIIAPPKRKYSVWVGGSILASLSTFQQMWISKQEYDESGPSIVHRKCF
UniProt O75334: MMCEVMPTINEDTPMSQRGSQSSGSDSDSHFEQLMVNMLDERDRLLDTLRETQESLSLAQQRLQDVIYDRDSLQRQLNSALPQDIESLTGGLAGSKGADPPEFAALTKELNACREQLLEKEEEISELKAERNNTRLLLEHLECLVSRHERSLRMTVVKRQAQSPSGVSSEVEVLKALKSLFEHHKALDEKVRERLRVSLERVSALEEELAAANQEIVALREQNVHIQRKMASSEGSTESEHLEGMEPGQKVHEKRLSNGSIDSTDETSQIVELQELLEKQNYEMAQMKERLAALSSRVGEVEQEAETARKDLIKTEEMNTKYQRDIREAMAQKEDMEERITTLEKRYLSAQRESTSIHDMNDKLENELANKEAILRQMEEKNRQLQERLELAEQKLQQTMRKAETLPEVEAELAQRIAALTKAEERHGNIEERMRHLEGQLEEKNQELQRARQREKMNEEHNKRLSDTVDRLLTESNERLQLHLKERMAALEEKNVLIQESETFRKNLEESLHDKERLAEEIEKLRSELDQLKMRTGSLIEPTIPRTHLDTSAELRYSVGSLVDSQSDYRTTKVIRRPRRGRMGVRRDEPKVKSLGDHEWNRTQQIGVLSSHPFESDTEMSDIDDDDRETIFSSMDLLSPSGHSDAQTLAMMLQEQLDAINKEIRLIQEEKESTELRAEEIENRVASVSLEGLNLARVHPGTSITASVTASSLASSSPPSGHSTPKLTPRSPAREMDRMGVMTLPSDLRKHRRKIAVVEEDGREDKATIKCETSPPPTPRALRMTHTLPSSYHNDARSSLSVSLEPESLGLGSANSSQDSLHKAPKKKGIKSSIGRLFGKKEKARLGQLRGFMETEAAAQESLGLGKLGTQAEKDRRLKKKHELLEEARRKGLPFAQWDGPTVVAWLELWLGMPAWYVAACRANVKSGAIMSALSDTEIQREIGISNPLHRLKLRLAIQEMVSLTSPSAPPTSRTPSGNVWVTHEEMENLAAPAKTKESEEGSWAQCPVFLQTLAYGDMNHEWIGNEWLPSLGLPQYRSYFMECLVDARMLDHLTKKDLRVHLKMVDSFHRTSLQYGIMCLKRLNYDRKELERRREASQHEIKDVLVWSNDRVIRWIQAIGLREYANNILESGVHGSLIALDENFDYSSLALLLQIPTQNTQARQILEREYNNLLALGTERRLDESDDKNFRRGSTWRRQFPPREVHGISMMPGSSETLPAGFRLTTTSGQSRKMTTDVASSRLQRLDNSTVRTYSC
UniProt Q14651: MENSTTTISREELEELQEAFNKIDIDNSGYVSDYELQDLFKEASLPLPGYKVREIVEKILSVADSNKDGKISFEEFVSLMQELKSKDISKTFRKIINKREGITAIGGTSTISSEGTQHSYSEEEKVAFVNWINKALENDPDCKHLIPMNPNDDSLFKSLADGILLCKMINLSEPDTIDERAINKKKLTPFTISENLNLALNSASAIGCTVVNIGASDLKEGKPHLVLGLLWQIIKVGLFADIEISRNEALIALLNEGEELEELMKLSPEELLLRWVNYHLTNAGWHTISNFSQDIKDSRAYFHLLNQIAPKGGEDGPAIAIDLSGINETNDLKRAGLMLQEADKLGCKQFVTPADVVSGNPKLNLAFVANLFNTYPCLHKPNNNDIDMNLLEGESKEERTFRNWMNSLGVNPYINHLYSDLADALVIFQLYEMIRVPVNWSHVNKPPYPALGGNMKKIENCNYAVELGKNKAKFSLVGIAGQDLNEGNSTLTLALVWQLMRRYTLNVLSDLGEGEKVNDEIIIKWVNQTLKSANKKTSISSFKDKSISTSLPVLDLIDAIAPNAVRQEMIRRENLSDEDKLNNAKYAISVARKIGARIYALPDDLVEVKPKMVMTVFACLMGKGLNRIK
UniProt P49005: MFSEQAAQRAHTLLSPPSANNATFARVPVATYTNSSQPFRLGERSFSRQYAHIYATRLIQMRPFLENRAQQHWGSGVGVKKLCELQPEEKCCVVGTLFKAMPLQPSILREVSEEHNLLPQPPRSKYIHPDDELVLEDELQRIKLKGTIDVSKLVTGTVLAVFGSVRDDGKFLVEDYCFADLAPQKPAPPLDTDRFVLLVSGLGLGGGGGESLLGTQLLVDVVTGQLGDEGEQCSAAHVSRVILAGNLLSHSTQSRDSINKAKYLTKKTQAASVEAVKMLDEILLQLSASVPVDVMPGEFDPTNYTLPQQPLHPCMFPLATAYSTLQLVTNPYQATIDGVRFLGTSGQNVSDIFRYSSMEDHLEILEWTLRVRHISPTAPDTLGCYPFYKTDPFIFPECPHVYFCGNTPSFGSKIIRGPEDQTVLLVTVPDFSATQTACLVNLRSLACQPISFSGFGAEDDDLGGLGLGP
UniProt Q9NRX1: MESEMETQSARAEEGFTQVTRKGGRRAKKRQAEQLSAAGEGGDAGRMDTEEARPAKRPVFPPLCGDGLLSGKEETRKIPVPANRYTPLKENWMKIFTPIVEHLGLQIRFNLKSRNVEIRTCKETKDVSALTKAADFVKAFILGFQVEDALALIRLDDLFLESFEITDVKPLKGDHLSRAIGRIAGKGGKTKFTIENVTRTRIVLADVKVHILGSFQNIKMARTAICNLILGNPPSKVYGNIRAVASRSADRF
UniProt Q7Z4H8: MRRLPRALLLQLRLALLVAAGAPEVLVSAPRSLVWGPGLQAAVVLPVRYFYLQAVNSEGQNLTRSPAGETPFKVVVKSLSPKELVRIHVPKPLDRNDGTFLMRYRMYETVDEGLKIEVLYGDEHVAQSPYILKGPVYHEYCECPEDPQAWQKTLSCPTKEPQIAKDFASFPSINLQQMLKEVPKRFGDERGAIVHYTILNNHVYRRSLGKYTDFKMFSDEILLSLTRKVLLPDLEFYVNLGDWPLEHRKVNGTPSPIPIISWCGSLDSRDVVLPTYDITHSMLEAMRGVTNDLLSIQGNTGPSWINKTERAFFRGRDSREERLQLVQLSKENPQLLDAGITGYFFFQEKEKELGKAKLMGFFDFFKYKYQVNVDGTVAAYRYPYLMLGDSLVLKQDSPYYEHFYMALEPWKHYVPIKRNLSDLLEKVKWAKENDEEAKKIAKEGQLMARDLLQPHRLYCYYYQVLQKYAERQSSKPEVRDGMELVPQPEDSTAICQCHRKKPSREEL
UniProt Q8TF01: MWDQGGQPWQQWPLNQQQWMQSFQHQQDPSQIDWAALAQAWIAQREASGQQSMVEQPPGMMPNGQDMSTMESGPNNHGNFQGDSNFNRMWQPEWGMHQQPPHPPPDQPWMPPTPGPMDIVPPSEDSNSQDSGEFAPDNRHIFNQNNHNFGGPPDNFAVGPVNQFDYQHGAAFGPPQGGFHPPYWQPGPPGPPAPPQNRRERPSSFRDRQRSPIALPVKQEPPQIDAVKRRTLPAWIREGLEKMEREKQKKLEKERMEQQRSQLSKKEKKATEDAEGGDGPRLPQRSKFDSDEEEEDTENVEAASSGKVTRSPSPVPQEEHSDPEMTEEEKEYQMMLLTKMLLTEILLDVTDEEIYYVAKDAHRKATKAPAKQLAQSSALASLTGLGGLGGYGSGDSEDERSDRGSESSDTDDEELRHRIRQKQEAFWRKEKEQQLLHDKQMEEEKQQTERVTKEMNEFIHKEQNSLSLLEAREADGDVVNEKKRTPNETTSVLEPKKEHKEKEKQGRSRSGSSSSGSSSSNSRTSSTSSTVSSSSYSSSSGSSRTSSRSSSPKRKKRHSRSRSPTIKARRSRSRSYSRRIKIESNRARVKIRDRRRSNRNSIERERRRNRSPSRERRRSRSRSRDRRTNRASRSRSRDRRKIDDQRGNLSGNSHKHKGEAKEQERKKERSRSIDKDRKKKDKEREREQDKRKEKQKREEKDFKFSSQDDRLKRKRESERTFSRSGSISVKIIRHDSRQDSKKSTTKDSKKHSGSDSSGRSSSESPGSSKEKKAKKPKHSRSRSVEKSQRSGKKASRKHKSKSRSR
UniProt P00491: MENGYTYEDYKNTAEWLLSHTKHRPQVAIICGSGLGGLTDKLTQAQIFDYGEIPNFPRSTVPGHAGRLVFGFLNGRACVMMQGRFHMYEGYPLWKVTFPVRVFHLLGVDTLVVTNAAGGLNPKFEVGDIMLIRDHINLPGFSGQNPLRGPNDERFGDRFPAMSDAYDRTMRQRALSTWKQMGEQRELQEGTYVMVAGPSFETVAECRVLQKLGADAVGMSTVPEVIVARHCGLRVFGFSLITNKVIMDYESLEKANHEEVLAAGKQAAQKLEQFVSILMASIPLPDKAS
UniProt P28340: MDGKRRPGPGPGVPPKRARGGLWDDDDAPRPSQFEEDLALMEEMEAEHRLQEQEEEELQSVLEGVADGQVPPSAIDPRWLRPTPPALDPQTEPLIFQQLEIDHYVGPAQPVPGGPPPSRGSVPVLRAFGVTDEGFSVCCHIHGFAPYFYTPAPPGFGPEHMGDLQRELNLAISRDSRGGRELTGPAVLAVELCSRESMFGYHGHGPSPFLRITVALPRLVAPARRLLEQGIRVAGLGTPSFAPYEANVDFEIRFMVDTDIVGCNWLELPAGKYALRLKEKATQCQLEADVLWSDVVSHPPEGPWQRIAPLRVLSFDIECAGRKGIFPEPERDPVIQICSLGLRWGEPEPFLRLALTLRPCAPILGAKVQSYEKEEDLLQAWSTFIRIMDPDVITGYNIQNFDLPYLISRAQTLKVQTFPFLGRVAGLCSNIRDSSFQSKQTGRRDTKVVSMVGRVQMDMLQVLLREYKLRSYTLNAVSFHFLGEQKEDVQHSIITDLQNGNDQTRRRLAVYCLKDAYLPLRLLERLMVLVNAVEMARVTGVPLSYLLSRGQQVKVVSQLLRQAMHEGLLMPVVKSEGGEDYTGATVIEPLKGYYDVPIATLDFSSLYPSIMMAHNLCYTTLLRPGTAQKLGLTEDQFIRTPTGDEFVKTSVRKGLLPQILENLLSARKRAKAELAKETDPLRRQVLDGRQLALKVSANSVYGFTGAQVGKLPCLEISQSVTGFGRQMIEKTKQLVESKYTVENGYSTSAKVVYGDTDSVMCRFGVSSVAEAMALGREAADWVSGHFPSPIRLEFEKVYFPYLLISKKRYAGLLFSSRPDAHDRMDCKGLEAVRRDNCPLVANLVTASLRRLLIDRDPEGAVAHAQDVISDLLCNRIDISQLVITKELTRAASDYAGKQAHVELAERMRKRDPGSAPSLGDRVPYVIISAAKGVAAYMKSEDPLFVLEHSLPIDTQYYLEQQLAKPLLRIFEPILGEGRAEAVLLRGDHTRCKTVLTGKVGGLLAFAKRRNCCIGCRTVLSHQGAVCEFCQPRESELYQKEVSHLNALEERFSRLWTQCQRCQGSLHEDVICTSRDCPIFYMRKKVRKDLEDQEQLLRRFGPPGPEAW
UniProt Q9Y535: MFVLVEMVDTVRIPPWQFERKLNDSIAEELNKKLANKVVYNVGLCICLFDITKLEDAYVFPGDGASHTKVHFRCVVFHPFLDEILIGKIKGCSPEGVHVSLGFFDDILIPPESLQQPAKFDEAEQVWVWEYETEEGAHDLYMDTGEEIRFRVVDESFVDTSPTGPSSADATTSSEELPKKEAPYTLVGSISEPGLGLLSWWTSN

Assays:
Assay in all cases: log2 fold change, soluble protein after heating vs DMSO (PISA); higher = thermal stabilisation; K562 lysate, 10 uM; active = over 0.2 and 3.5 SD of the protein, either way, in both replicates (recomputed)
erlotinib = compound: C#Cc1cccc(Nc2ncnc3cc(OCCOC)c(OCCOC)cc23)c1 [erlotinib]
Procedure, shortened: (§1)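 Following dounce homogenisation of K562 pellets in PBS pH 7.4 with 1 mM MgCl2, crude extract at 1 mg/mL protein was incubated for 30 min with 10 μM compound. Aliquots were then heated for 3 min over 48°C-58°C and pooled, NP-40 was added to 0.5% at 4°C, and soluble protein was recovered as the supernatant at 21,000xg for 90 min. Channel-sum-equalised TMTpro 16plex LC-MS/MS quantified this protein. Each value, from duplicates, is a log-two fold change in thermal stability relative to solvent controls.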

[1] = compound: C/C(=N\NC(=O)C1=CC(=CC=C1)S(=O)(=O)N2CCOCC2)/C3=C(C=CC(=C3)Cl)O
Procedure, shortened: as §1

[2] = compound: C1=CC(=CC=C1C2=NC3=C(N2)C=C(C=C3)C(=O)N)OC4=CC=C(C=C4)Cl
Procedure, shortened: as §1

[3] = compound: C1=CC2=C(C=CC(=C2)/C=C\3/C(=O)NC(=NCC4=CC=CS4)S3)N=C1
Procedure, shortened: as §1

[4] = compound: C1=CC2=NC=CN=C2C=C1/C=C/3\C(=O)NC(=O)S3
Procedure, shortened: as §1

[5] = compound: C1=CC=C(C=C1)C2=NC(=C(N2)C3=CC=NC=C3)C4=CC(=C(C=C4)Cl)O
Procedure, shortened: as §1

[6] = compound: C1=CC=C2C(=C1)C3=NNC4=CC=CC(=C43)C2=O
Procedure, shortened: as §1

[7] = compound: C1CCN(C1)C(=O)NC2=CC=CC(=C2)NC3=NC=C(C(=N3)NCCC4=CN=CN4)Br
Procedure, shortened: as §1

[8] = compound: C1CN(CCC1(CC2=CC=C(C=C2)Cl)N)C3=NC=NC4=C3C=CN4
Procedure, shortened: as §1

IRAK-1-4 Inhibitor I = compound: C1COCCN1CCN2C3=CC=CC=C3N=C2NC(=O)C4=CC(=CC=C4)[N+](=O)[O-] [IRAK-1-4 Inhibitor I]
Procedure, shortened: as §1

ibrutinib = compound: C=CC(=O)N1CCC[C@@H](n2nc(-c3ccc(Oc4ccccc4)cc3)c3c(N)ncnc32)C1 [ibrutinib]
Procedure, shortened: as §1

[9] = compound: CC(=O)c1cnc2ccc(-c3cc(Cl)c(O)c(Cl)c3)nc2c1N[C@H]1CC[C@H](CN(C)C)CC1
Procedure, shortened: as §1

ralimetinib = compound: CC(C)(C)Cn1c(N)nc2ccc(-c3[nH]c(C(C)(C)C)nc3-c3ccc(F)cc3)nc21 [ralimetinib]
Procedure, shortened: as §1

[10] = compound: CC(C)(O)CC(=O)NCCn1ccc2ncnc(Nc3ccc(Oc4cccc(C(F)(F)F)c4)c(Cl)c3)c21
Procedure, shortened: as §1

[11] = compound: CC(C)C1=C2N=C(C=C(N2N=C1)NCC3=CC=CC=C3)NCCCCCCN
Procedure, shortened: as §1

[12] = compound: CC1=C(C(CC(=O)N1)C2=CC=C(C=C2)C(F)(F)F)C(=O)NC3=C(C=C4C(=C3)C=NN4)F
Procedure, shortened: as §1

[13] = compound: CC1=C(C2=C(C=C1)C(=O)C3=CC=CC=C3N2CCCN)C
Procedure, shortened: as §1

[14] = compound: CC1=C(C=C(C=C1)NC(=O)C2=CC(=CC=C2)C(C)(C)C#N)NC3=CC4=C(C=C3)N=CN(C4=O)C
Procedure, shortened: as §1

[15] = compound: CC1=C(C=C(C=C1)NC(=O)C2=CC(=CC=C2)N(C)C)NC(=O)C3=CC=C(C=C3)O
Procedure, shortened: as §1

[16] = compound: CC1=CC=C(C=C1)SC2=C3C=C(SC3=CN=C2)C(=O)N
Procedure, shortened: as §1

Measured: log2 fold change

POLR1A (UniProt O95602)
inactive: erlotinib 0.086 | [1] 0.003 | [2] 0.092 | [3] 0.003 | [4] -0.084 | [5] 0.003 | [6] -0.074 | [7] -0.015 | [8] 0.049 | IRAK-1-4 Inhibitor I -0.001 | ibrutinib 0.076 | [9] -0.006 | ralimetinib 0.012 | [10] -0.05 | [11] 0.007 | [12] 0.014 | [13] -0.081 | [14] -0.024 | [15] 0.018 | [16] 0.023

POLR2C (UniProt P19387)
inactive: erlotinib -0.03 | [1] 0.012 | [2] 0.015 | [3] 0.045 | [4] -0.017 | [5] -0.001 | [6] -0.051 | [7] 0.044 | [8] 0.024 | IRAK-1-4 Inhibitor I 0.002 | ibrutinib -0.014 | [9] -0.002 | ralimetinib -0.017 | [10] 0.018 | [11] -0.002 | [12] 0.039 | [13] 0.004 | [14] 0.017 | [15] 0.018 | [16] 0.011

POTEI (UniProt P0CG38)
inactive: erlotinib 0.016 | [1] 0.005 | [2] 0.001 | [3] -0.018 | [4] -0.022 | [5] -0.03 | [6] -0.02 | [7] 0.021 | [8] 0.015 | IRAK-1-4 Inhibitor I 0 | ibrutinib 0.004 | [9] -0.017 | ralimetinib 0.015 | [10] -0.019 | [11] 0.045 | [12] -0.019 | [13] -0.003 | [14] 0.045 | [15] -0.027 | [16] 0

PPFIA2 (UniProt O75334)
inactive: erlotinib 0.019 | [1] -0.005 | [2] 0.02 | [3] -0.004 | [4] 0.065 | [5] 0.012 | [6] -0.006 | [7] 0.02 | [8] -0.074 | IRAK-1-4 Inhibitor I -0.022 | ibrutinib -0.013 | [9] 0.01 | ralimetinib 0.085 | [10] 0.015 | [11] 0.006 | [12] 0.041 | [13] 0.02 | [14] 0.047 | [15] 0.033 | [16] -0.022

POLR3E (UniProt Q9NVU0)
inactive: erlotinib 0.003 | [1] 0.003 | [2] -0.007 | [3] 0.017 | [4] 0.005 | [5] 0.006 | [6] -0.001 | [7] -0.03 | [8] -0.007 | IRAK-1-4 Inhibitor I -0.016 | ibrutinib 0.02 | [9] 0.018 | ralimetinib 0.043 | [10] -0.006 | [11] 0.029 | [12] 0.025 | [13] -0.021 | [14] -0.004 | [15] 0.003 | [16] 0.007

PLS1 (UniProt Q14651)
inactive: erlotinib 0.029 | [1] -0.086 | [2] 0.039 | [3] 0.023 | [4] 0.003 | [5] -0.004 | [6] 0.002 | [7] 0.002 | [8] 0 | IRAK-1-4 Inhibitor I 0.005 | ibrutinib 0 | [9] -0.009 | ralimetinib 0.011 | [10] -0.04 | [11] -0.005 | [12] 0.006 | [13] -0.003 | [14] 0.006 | [15] -0.013 | [16] 0.001

2 records drawn at random from those above, as already listed:
PLS1 (UniProt Q14651)
inactive: erlotinib 0.029 | [1] -0.086 | [2] 0.039 | [3] 0.023 | [4] 0.003 | [5] -0.004 | [6] 0.002 | [7] 0.002 | [8] 0 | IRAK-1-4 Inhibitor I 0.005 | ibrutinib 0 | [9] -0.009 | ralimetinib 0.011 | [10] -0.04 | [11] -0.005 | [12] 0.006 | [13] -0.003 | [14] 0.006 | [15] -0.013 | [16] 0.001

POLR3E (UniProt Q9NVU0)
inactive: erlotinib 0.003 | [1] 0.003 | [2] -0.007 | [3] 0.017 | [4] 0.005 | [5] 0.006 | [6] -0.001 | [7] -0.03 | [8] -0.007 | IRAK-1-4 Inhibitor I -0.016 | ibrutinib 0.02 | [9] 0.018 | ralimetinib 0.043 | [10] -0.006 | [11] 0.029 | [12] 0.025 | [13] -0.021 | [14] -0.004 | [15] 0.003 | [16] 0.007

More records:

POLR2D (UniProt O15514)
inactive: erlotinib -0.07 | [1] 0.016 | [2] -0.005 | [3] -0.072 | [4] 0.035 | [5] -0.003 | [6] 0.167 | [7] 0.014 | [8] 0.104 | IRAK-1-4 Inhibitor I 0.017 | ibrutinib 0.147 | [9] 0.001 | ralimetinib -0.07 | [10] -0.015 | [11] 0.016 | [12] 0.004 | [13] -0.067 | [14] -0.022 | [15] -0.016 | [16] 0.002

PLEKHM2 (UniProt Q8IWE5)
inactive: erlotinib 0.017 | [1] 0.045 | [2] 0.014 | [3] 0.007 | [4] -0.013 | [5] -0.012 | [6] -0.01 | [7] -0.016 | [8] -0.012 | IRAK-1-4 Inhibitor I 0.029 | ibrutinib 0.031 | [9] 0.075 | ralimetinib 0.024 | [10] -0.105 | [11] -0.04 | [12] -0.048 | [13] 0.06 | [14] 0.036 | [15] 0.045 | [16] -0.037

POLD2 (UniProt P49005)
inactive: erlotinib -0.019 | [1] 0.004 | [2] 0 | [3] 0.056 | [4] -0.016 | [5] 0.005 | [6] -0.019 | [7] -0.015 | [8] -0.005 | IRAK-1-4 Inhibitor I -0.024 | ibrutinib 0.026 | [9] 0.015 | ralimetinib 0.018 | [10] 0.013 | [11] 0 | [12] -0.011 | [13] -0.024 | [14] -0.004 | [15] 0.037 | [16] 0.004

PNO1 (UniProt Q9NRX1)
inactive: erlotinib 0.044 | [1] 0.027 | [2] -0.029 | [3] 0.018 | [4] -0.016 | [5] 0.028 | [6] -0.011 | [7] -0.003 | [8] -0.006 | IRAK-1-4 Inhibitor I 0.041 | ibrutinib 0.022 | [9] -0.021 | ralimetinib 0.042 | [10] -0.024 | [11] -0.036 | [12] 0.013 | [13] -0.015 | [14] -0.001 | [15] 0.018 | [16] 0.004

POGLUT3 (UniProt Q7Z4H8)
inactive: erlotinib 0.023 | [1] -0.044 | [2] -0.025 | [3] 0.018 | [4] -0.009 | [5] -0.001 | [6] -0.04 | [7] -0.038 | [8] -0.005 | IRAK-1-4 Inhibitor I -0.011 | ibrutinib 0.002 | [9] 0.023 | ralimetinib 0.036 | [10] -0.013 | [11] 0.003 | [12] -0.01 | [13] 0.002 | [14] -0.055 | [15] -0.021 | [16] 0.002

PNISR (UniProt Q8TF01)
inactive: erlotinib -0.006 | [1] -0.078 | [2] 0.022 | [3] 0.014 | [4] -0.017 | [5] -0.012 | [6] 0.014 | [7] -0.009 | [8] -0.021 | IRAK-1-4 Inhibitor I 0.002 | ibrutinib 0.033 | [9] -0.012 | ralimetinib 0.004 | [10] -0.008 | [11] 0.003 | [12] -0.008 | [13] -0.009 | [14] -0.002 | [15] -0.02 | [16] -0.034

POLR2E (UniProt P19388)
inactive: erlotinib 0.02 | [1] 0.008 | [2] 0.011 | [3] -0.007 | [4] -0.021 | [5] 0.004 | [6] -0.084 | [7] -0.022 | [8] -0.015 | IRAK-1-4 Inhibitor I 0.011 | ibrutinib -0.03 | [9] -0.007 | ralimetinib -0.045 | [10] -0.033 | [11] 0.032 | [12] 0.008 | [13] -0.013 | [14] -0.003 | [15] 0.001 | [16] -0.006

PNP (UniProt P00491)
inactive: erlotinib -0.044 | [1] 0.023 | [2] 0.004 | [3] -0.011 | [4] -0.009 | [5] -0.008 | [6] -0.018 | [7] 0.009 | [8] -0.009 | IRAK-1-4 Inhibitor I -0.008 | ibrutinib -0.007 | [9] 0.01 | ralimetinib -0.002 | [10] -0.027 | [11] 0.001 | [12] -0.023 | [13] 0.016 | [14] 0.009 | [15] -0.004 | [16] -0.011

POLD1 (UniProt P28340)
inactive: erlotinib 0.016 | [1] -0.05 | [2] 0.013 | [3] 0.008 | [4] -0.008 | [5] 0.015 | [6] -0.029 | [7] -0.006 | [8] 0.007 | IRAK-1-4 Inhibitor I -0.01 | ibrutinib -0.003 | [9] 0.014 | ralimetinib 0.035 | [10] 0.018 | [11] 0 | [12] 0.005 | [13] -0.012 | [14] 0.005 | [15] 0.02 | [16] -0.032

POLR3H (UniProt Q9Y535)
inactive: erlotinib 0.148 | [1] -0.014 | [2] 0.064 | [3] 0.047 | [4] -0.044 | [5] -0.052 | [6] -0.023 | [7] -0.006 | [8] 0.027 | IRAK-1-4 Inhibitor I 0.095 | ibrutinib -0.022 | [9] 0.035 | ralimetinib 0.048 | [10] 0.068 | [11] 0.016 | [12] -0.149 | [13] -0.01 | [14] 0.009 | [15] -0.017 | [16] -0.062
